Source: PubChem BioAssay AID1487 (National Center for Advancing Translational Sciences (NCATS), 2009)
Several values for one entry are separate records, joined by “and”; a condition that tells them apart may be missing. Equal values may be shown once. This is one part of the list. These are further read-outs of the screen, such as a control signal, another cell line or another target. No call is given for them. Compounds called inactive in the main read-out are mostly missing here. Words in brackets tell the shape of the fitted curve; partial curves, single points and poor fits give uncertain potencies.

Test: qHTS Assay for Modulators of Lamin A Splicing
Settings: HeLa LMNA splicing GFP/RFP minigene ratio, 48 h
Summary of the method: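 S3 HeLa stable clones carrying a lamin A-EGFP splicing minigene plus DsRed2 were seeded at 600 cells/well in Opti-MEM with 2% FBS, pin-dosed and incubated 48 h at 37°C. Acumen cytometry (488 nm) gave the GFP/RFP total-intensity ratio.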

[1] = measured here: GFP splicing reporter channel
[2] = measured here: RFP viability control channel

| Structure (SMILES) | AC50 [1] | AC50 [2] |
| --- | --- | --- |
| Cc1c(NS(=O)(=O)c2ccc(N(C)C3CCCCC3)c([N+](=O)[O-])c2)c(=O)n(-c2ccccc2)n1C | 31.6 µM [rising, single point] | 35.5 µM [rising, single point] |
| Cc1cccc(C)c1OCC(=O)Nc1cccc(-c2nnc(-c3ccccc3)o2)c1 | – | 15.8 µM [rising, single point] |
| Cc1ccc(N2CC(c3nc4ccccc4[nH]3)CC2=O)c(C)c1 (stereo not given) | – | 35.5 µM [rising, single point] |
| CSCC(=O)Nc1nc(-c2ccc3c(c2)OCCO3)cs1 | 1.12 µM [rising, partial curve, poor fit] | – |
| O=c1cc(Nc2ccc3c(c2)OCCO3)[nH]c(=O)n1-c1ccc(Cl)cc1 | – | 35.5 µM [rising, single point] |
| O=C(CN1CCOCC1)Nc1ccc(S(=O)(=O)NC2CCCCC2)cc1 | – | 12.6 µM [rising, partial curve] |
| O=[N+]([O-])c1cccc(C(=S)N2CCN(c3ccccc3)CC2)c1 | – | 14.1 µM [rising, single point] |
| COc1ccccc1NC(=O)N(Cc1ccco1)Cc1cc2cccc(C)c2[nH]c1=O | – | 14.1 µM [rising, partial curve, poor fit] |
| Nc1n[nH]c(-c2cccc([N+](=O)[O-])c2)n1 | – | 0.891 µM [rising, full curve, poor fit] |
| O=C(CCCc1ccccc1)NC1CC(=O)N(c2ccc(Cl)cc2)C1 (stereo not given) | – | 0.0794 µM [falling, partial curve, poor fit] |
| O=C(NCCCN1CCOCC1)c1ccc(Sc2cccc(Cl)c2)c([N+](=O)[O-])c1 | – | 12.6 µM [rising, partial curve, poor fit] |
| CC(=O)c1c(C)[nH]c(C(=O)OCC(=O)Nc2ccccc2Cl)c1C | – | 12.6 µM [rising, partial curve, poor fit] |
| Cc1ccc(OCC(=O)Nc2nnc(SCc3cc(=O)c4ccccc4[nH]3)s2)cc1C | 1.26 µM [rising, full curve, poor fit] | 2.51 µM [rising, full curve] |
| CCCCCCCn1c2c(c(=N)c3c1CCC3)CCCC2 | 1.41 µM [rising, full curve, poor fit] | 1.41 µM [rising, partial curve] |
| CCOc1ccc(OCCCCOc2ccccc2C(C)=O)cc1 | 35.5 µM [rising, single point] | 25.1 µM [rising, partial curve] |
| CC1=Nc2cc(C(=O)NC3CCCCC3)ccc2Sc2ccc(Cl)cc21 | – | 0.282 µM [rising, full curve] |
| CC(=O)c1c(C)[nH]c(C(=O)OCC(=O)N2CC(=O)Nc3ccccc32)c1C | 5.01 µM [rising, single point] | – |
| O=S(=O)(c1ccccc1)N1CCC(O)(CSc2ccc(F)cc2)CC1 | 0.398 µM [falling, partial curve, poor fit] | – |
| COC(=O)c1cc(OC)c(OC)cc1NC(=S)N1CCN(C)CC1 | – | 0.708 µM [rising, single point] |
| CCOC(=O)c1c(NC(=O)CSc2nc3ccccc3s2)sc(C)c1C | – | 35.5 µM [rising, single point] |
| Cc1ccc(-c2csc(NC(=O)N3CCOCC3)n2)cc1 | – | 3.55 µM [falling, partial curve] |
| COC(=O)c1ccc(COC(=O)c2[nH]c(C)c(C(C)=O)c2C)o1 | – | 22.4 µM [rising, single point] |
| Cc1cc(Cl)ccc1OCC(=O)NN1C(=O)C2C3C=CC(C3)C2C1=O (stereo not given) | – | 2.24 µM [rising, full curve] |
| O=P(c1ccccc1)(c1ccccc1)c1nc(-c2ccc(Cl)cc2)oc1N1CCOCC1 | – | 35.5 µM [falling, single point] |
| O=C(NN1C(=O)C2C(C1=O)C1C=CC2C12CC2)c1ccccc1 (stereo not given) | 6.31 µM [rising, partial curve, poor fit] | – |
| COc1cc(C(c2c(C)[nH][nH]c2=O)c2c(C)[nH][nH]c2=O)cc([N+](=O)[O-])c1O | 0.0562 µM [rising, full curve, poor fit] | – |
| Cc1cccc(NC(=O)Cc2coc3ccc4ccccc4c23)n1 | – | 35.5 µM [rising, single point] |
| COc1ccc(CCNc2oc(COc3ccccc3Cl)nc2C#N)cc1OC | – | 35.5 µM [rising, single point] |

Two consecutive compounds out of the list so far, for reference:

| Structure (SMILES) | AC50 [1] | AC50 [2] |
| --- | --- | --- |
| O=C(CCCc1ccccc1)NC1CC(=O)N(c2ccc(Cl)cc2)C1 (stereo not given) | – | 0.0794 µM [falling, partial curve, poor fit] |
| O=C(NCCCN1CCOCC1)c1ccc(Sc2cccc(Cl)c2)c([N+](=O)[O-])c1 | – | 12.6 µM [rising, partial curve, poor fit] |

More structures follow:

| Structure (SMILES) | AC50 [1] | AC50 [2] |
| --- | --- | --- |
| Cc1cc(/C=C\c2ccccc2)nc2ccccc12 | 35.5 µM [falling, single point] | – |
| COc1ccc(-c2[nH]ncc2CN2CCN(C3CCCCC3)C(=O)C2)cc1F | 7.94 µM [falling, full curve, poor fit] | – |
| CCOC(=O)c1c(C)[nH]c(C(=O)COC(=O)c2ccccn2)c1C | 6.31 µM [rising, single point] | – |
| COc1ccc(Br)cc1CN(C)CC(=O)Nc1cc(Cl)cc(Cl)c1 | 14.1 µM [rising, single point] | 15.8 µM [rising, partial curve] |
| CCOC(=O)CN1C(=O)C2(OCCCO2)c2ccccc21 | – | 15.8 µM [falling, single point] |
| O=C(Cc1ccccc1)Nc1ccc(Br)c(Cl)c1 | 20 µM [rising, single point] | 25.1 µM [rising, single point] |
| CCCc1cc(=O)[nH]c(SCCOc2ccc(OCC)cc2)n1 | 14.1 µM [rising, partial curve] | 15.8 µM [rising, single point] |
| O=c1c(-c2cccs2)nc2cnc(N3CCNCC3)nc2n1CCc1ccccc1 | 35.5 µM [falling, single point] | 35.5 µM [falling, partial curve] |
| S=C(NCc1ccco1)Nc1ccccc1 | 1.26 µM [falling, partial curve, poor fit] | 1.26 µM [falling, partial curve, poor fit] |
| Cc1cc(C)nc(SCC(=O)Nc2ccc(S(=O)(=O)NC(C)(C)C)cc2)n1 | 17.8 µM [rising, single point] | 17.8 µM [rising, single point] |
| Clc1cccc(-n2ncc3c(NCCc4ccccc4)ncnc32)c1 | 0.316 µM [falling, full curve, poor fit] | 0.178 µM [falling, full curve, poor fit] |
| COc1cccc(NC(=O)c2cc([N+](=O)[O-])ccc2NC(=O)CNCC2CCCO2)c1 (stereo not given) | 3.55 µM [rising, single point] | 1.41 µM [rising, full curve, poor fit] |
| CC1CCC(C(C)C)C(OC(=O)Cn2c(-c3ccccc3)[n+](C)c3ccccc32)C1 (stereo not given) | 1.41 µM [rising, full curve] | 8.91 µM [rising, partial curve] and 3.55 µM [rising, full curve] |
| CCCCCNC(=O)c1cc2c(=O)n3ccccc3nc2n1C | 31.6 µM [falling, partial curve] | – |
| CC(C)N1CCC(N2CCN(Cc3cc4c(cc3Cl)OCO4)CC2CCO)CC1 (stereo not given) | 1.12 µM [falling, full curve] | 0.891 µM [falling, full curve, poor fit] |
| CC(C)(C)Nc1ncnc2c1cnn2-c1ccccc1 | – | 6.31 µM [rising, partial curve, poor fit] |
| Cc1cc(/C=N/O)c(C)n1-c1ccc(Br)cc1 | 20 µM [rising, partial curve, poor fit] | – |
| O=S1(=O)N=C(N(CCO)/N=C/c2ccccc2)c2ccccc21 | 1.26 µM [falling, partial curve, poor fit] | 0.355 µM [falling, partial curve] |
| O=C(NC(Cc1c[nH]c2ccccc12)C(=O)O)c1cccs1 (stereo not given) | 0.00891 µM [falling, full curve, poor fit] | 0.00447 µM [falling, full curve, poor fit] |
| CC1=C(C(=O)OC(C)C)C(c2ccccc2)NC(=S)N1C (stereo not given) | – | 17.8 µM [rising, single point] |
| c1ccc2c(NC3C4CC5CC(C4)CC3C5)nc(N3CCOCC3)nc2c1 (stereo not given) | 3.16 µM [falling, single point] | 35.5 µM [falling, single point] |
| CC(C)Cn1c(=O)c(C(=O)N/N=C/c2cccc(F)c2)c(O)c2ccccc21 | – | 5.01 µM [rising, single point] |
| C=CCN(c1ccc(C(=O)N2CCN(c3ccc(F)cc3)CC2)cc1)S(C)(=O)=O | – | 25.1 µM [rising, partial curve, poor fit] |
| COc1cc(/C=C2\SC(=Nc3ccccc3)N(CCc3c[nH]c4ccccc34)C2=O)ccc1OC(C)C(=O)O (stereo not given) | – | 35.5 µM [rising, single point] |
| COc1ccc2[nH]cc(CCNc3ncnc4ccc(-c5ccoc5)cc34)c2c1 | 17.8 µM [falling, partial curve] | 11.2 µM [falling, partial curve] |
| Cc1cc(F)ccc1S(=O)(=O)N1CCCOC1CNC(=O)C(=O)NCCc1c[nH]c2ccccc12 (stereo not given) | 12.6 µM [rising, single point] | 25.1 µM [rising, single point] |
| Cc1ccc(NC(=O)CSc2nc3nc(C)c(Cc4ccccc4)c(C)n3n2)cc1 | 10 µM [falling, partial curve, poor fit] | 39.8 µM [falling, partial curve, poor fit] |

Compounds listed so far that contain an aryl methoxy group (9):

| Structure (SMILES) | AC50 [1] | AC50 [2] |
| --- | --- | --- |
| COc1ccccc1NC(=O)N(Cc1ccco1)Cc1cc2cccc(C)c2[nH]c1=O | – | 14.1 µM [rising, partial curve, poor fit] |
| COC(=O)c1cc(OC)c(OC)cc1NC(=S)N1CCN(C)CC1 | – | 0.708 µM [rising, single point] |
| COc1cc(C(c2c(C)[nH][nH]c2=O)c2c(C)[nH][nH]c2=O)cc([N+](=O)[O-])c1O | 0.0562 µM [rising, full curve, poor fit] | – |
| COc1ccc(CCNc2oc(COc3ccccc3Cl)nc2C#N)cc1OC | – | 35.5 µM [rising, single point] |
| COc1ccc(-c2[nH]ncc2CN2CCN(C3CCCCC3)C(=O)C2)cc1F | 7.94 µM [falling, full curve, poor fit] | – |
| COc1ccc(Br)cc1CN(C)CC(=O)Nc1cc(Cl)cc(Cl)c1 | 14.1 µM [rising, single point] | 15.8 µM [rising, partial curve] |
| COc1cccc(NC(=O)c2cc([N+](=O)[O-])ccc2NC(=O)CNCC2CCCO2)c1 (stereo not given) | 3.55 µM [rising, single point] | 1.41 µM [rising, full curve, poor fit] |
| COc1cc(/C=C2\SC(=Nc3ccccc3)N(CCc3c[nH]c4ccccc34)C2=O)ccc1OC(C)C(=O)O (stereo not given) | – | 35.5 µM [rising, single point] |
| COc1ccc2[nH]cc(CCNc3ncnc4ccc(-c5ccoc5)cc34)c2c1 | 17.8 µM [falling, partial curve] | 11.2 µM [falling, partial curve] |
